Data as given in paper PMC12567515, “Assessment of Carrier-Free Metallacarboranes for Targeted Radiation Therapies PBFT and BNCT: Comparative Cellular Effects and Dosimetry Studies with [o-FESAN]^− in Breast Cancer Cells” (Pharmaceuticals, 2025).

Key:
Format in all cases: cell-based, human
MDA-MB-231 cells [1] = test: Single cell Fe uptake by nuclear microscopy (micro-PIXE); settings: MDA-MB-231, 50 µM, 24 h
Method: The concentration of Fe in MDA-MD-231 cells treated with Na[o-FESAN] increased by 1.7-fold in the cytoplasm and by up to 2.2-fold in the nucleus, as compared to the untreated control counterparts (average Fe concentration in the cytoplasm on a dry weight basis: 250 ± 30 µg/g vs. 150 ± 10 µg/g in controls; in the nucleus: 430 ± 90 µg/g vs. 200 ± 30 µg/g in controls).
The distribution of Fe in single MDA-MB-231 cells (controls and after 24 h incubation with 50 µM Na[o-FESAN]) was assessed by nuclear microscopy imaging performed at the nuclear microprobe setup of the CTN/IST Van de Graaff accelerator [69, 70]. In brief, cells were seeded on silicon nitride membranes (Silson Ltd., Southam, UK). Images of elemental distributions (such as Fe) and morphology (mass density) were created using different techniques simultaneously by scanning a 2.0 MeV proton beam focused to micrometer dimensions over the sample surface. This enables the colocalization of cell features and Fe quantification by PIXE, which is useful for assessing cellular uptake and elemental compartmentalization. The data acquisition, including imaging processing and spectral analysis, was performed using DAQ-3 software (version 3) (Oxford Microbeams Ltd., Bicester, UK).

MDA-MB-231 cells [2] = test: Cellular uptake of B and Fe by ICP-MS; settings: for Internalized B: 24 h incubation
Method: (§1) The cellular uptake of Na[o-FESAN] was measured by ICP-MS in the subcellular cytoplasm and nucleus fractions, after 24 h of exposure to Na[o-FESAN] at 50 µM, which allowed for assessing both B and Fe content. The B-to-Fe ratio of around three found in both cellular compartments aligns with the compound’s stoichiometry, reinforcing its structural integrity and highlighting the importance of nuclear localization for the therapeutic efficacy of both therapies, BNCT and PBFT (Table 1).
(§2) For neutron irradiation, SKBR-3 and MDA-MB-231 cells were incubated with Na[o-FESAN] at 50 and 100 µM and were irradiated with thermal neutrons at the Triga Mark II nuclear reactor at the University of Pavia. […] Both surviving SKBR-3 and MDA-MB-231 cells that were treated with Na[o-FESAN] […] This clearly indicates the important contribution of neutron capture to induce a long-term cytotoxic effect. Another important point is that the toxic effect was observed using Na[o-FESAN] containing natural B. In fact, the amount of internalized B measured by ICP-MS after 24 h incubation with 50 or 100 µM Na[o-FESAN] contained only 19.9% of the active ^10B isotope. Assuming that in the case of epithelial tumors (with a diameter ranging from 15–20 µm), a density of ca. 10^8 cells for cm^3 is a reasonable number, [76] from the data obtained by ICP-MS analysis, it was possible to calculate the amount of ^10B internalized in cells expressed in ppm (µg/g).
(§3) SKBR-3 and MDA-MB-231 cells (~10^6 cells/2 mL) were incubated with Na[o-FESAN] 50 µM for 24 h in 6-well plates. The cellular fractions, nucleus and cytosol, were obtained using Igepal® ca-630 (Sigma-Aldrich, Darmstadt, Germany). Briefly, after treatment, cells were washed with PBS and collected by centrifugation. Then, the cells were lysed with buffer containing 50 mM Tris (pH 7.4), 250 mM NaCl, 5 mM EDTA, 50 mM NaF, 1 mM Na3VO4, 0.02% NaN3 and 1% Igepal for 30 min. on ice, with constant vortexing for 10 min. After centrifugation at 400× g for 10 min, 4 °C, the supernatant (cytosol) and the pellet (nucleus) fractions were obtained. The levels of B and Fe in each fraction were measured by a Thermo X-Series Quadrupole ICP-MS (Thermo Scientific, Birmingham, UK) and were expressed as ng of B or Fe/10^6 cells (Table 1).

SKBR-3 cells = test: Cellular uptake of B and Fe by ICP-MS; settings: for Internalized B: 24 h incubation
Method: as §1, §2, §3

[3] = MDA-MB-231, 50 µM, 24 h, ICP-MS, B and Fe in ng/10^6 cells
[4] = SKBR-3, 50 µM, 24 h, ICP-MS, B and Fe in ng/10^6 cells

With [3,3′-Fe(1,2-C2B9H11)2]^− [Na[o-FESAN]] the “Average Fe concentration in the cytoplasm, dry weight basis” value (MDA-MB-231 cells [1]) was 250 ± 30 µg/g, the “Average Fe concentration in the nucleus, dry weight basis” value (MDA-MB-231 cells [1]) was 430 ± 90 µg/g and the “Increase of Fe concentration in the cytoplasm vs untreated controls” value (MDA-MB-231 cells [1]) was 1.7 fold. The “Increase of Fe concentration in the nucleus vs untreated controls” value (MDA-MB-231 cells [1]) was “up to 2.2 fold”, the “B/Fe ratio, Cytoplasm” value (MDA-MB-231 cells [2]; [3]) was 2.8 and the “B/Fe ratio, Nucleus” value (MDA-MB-231 cells [2]; [3]) was 2.7. The “Internalized B” value (MDA-MB-231 cells [2]; MDA-MB-231, 50 µM) was 310 ± 87 ng/10^6 Cells, the “Internalized B” value (MDA-MB-231 cells [2]; MDA-MB-231, 100 µM) was 406 ± 113 ng/10^6 Cells and the “B/Fe ratio, Cytoplasm” value (SKBR-3 cells; [4]) was 2.8. For the same substance, the “B/Fe ratio, Nucleus” value (SKBR-3 cells; [4]) was 2.9, the “Internalized B” value (SKBR-3 cells; SKBR-3, 50 µM) was 303 ± 73 ng/10^6 Cells and the “Internalized B” value (SKBR-3 cells; SKBR-3, 100 µM) was 475 ± 114 ng/10^6 Cells.
